Paper PMC6925144, “A prospective compound screening contest identified broader inhibitors for Sirtuin 1” (Scientific Reports, 2019)
The full ranking holds about 3,200 compounds; the median of “TSA(with NAD+) / Primary screening (TSA) / delta Tm (K)” is about -0.04, and the highest 2% start at about 0.37. The list shows a part of the results.

By UniProt entry, the sequences of proteins in these tests, tags left out. Residues count along the entry.
UniProt Q96EB6, 2-747 limits assumed: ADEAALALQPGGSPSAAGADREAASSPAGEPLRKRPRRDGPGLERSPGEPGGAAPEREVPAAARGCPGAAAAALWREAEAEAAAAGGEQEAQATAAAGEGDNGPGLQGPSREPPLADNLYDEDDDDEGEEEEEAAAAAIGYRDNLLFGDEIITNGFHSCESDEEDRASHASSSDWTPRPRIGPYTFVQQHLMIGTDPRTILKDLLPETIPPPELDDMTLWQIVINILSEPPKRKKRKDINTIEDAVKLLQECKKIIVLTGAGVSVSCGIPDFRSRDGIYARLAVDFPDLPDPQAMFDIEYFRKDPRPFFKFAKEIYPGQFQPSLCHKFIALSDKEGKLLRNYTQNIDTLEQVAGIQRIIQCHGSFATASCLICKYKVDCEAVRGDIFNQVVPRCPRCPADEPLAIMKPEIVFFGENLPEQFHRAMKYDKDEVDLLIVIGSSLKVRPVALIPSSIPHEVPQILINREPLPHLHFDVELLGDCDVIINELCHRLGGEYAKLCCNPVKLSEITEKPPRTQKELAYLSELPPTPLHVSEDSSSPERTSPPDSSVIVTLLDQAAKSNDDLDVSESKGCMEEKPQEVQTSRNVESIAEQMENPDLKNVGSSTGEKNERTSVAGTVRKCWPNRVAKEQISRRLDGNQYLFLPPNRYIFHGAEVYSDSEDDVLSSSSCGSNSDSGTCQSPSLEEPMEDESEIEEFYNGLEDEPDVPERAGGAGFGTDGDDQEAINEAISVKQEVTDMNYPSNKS

Each molecule was assayed against NAD-dependent deacetylase Sirtuin 1 (human, UniProt Q96EB6) (assay: primary screen, delta tm). Conditions: 10 µM.
Set-up: single well (n = 1, as 'the same TSA')

| SMILES | TSA(with NAD+) / Primary screening (TSA) / delta Tm (K) |
| --- | --- |
| CCCCNC(=O)C1CCN(S(=O)(=O)c2cc(C(N)=O)n(C)c2)CC1 | 0.06 |
| Cc1ccc(C2C(C(=O)c3nc4ccccc4s3)=C(O)C(=O)N2CCCN2CCOCC2)cc1 (stereo not shown) | -0.03 |
| Cc1cc2ccccc2n1CC(=O)NCC(Cc1ccccc1)N(C)C (stereo not shown) | -0.18 |
| CCOc1ccc(CN(C)CC(=O)Nc2oc(C)c3c(C)n[nH]c(=O)c23)cc1 | -0.14 |
| CCn1c(=O)c(=O)[nH]c2cc(C(=O)N(C)Cc3ccc(OCc4ccccc4)c(OC)c3)ccc21 | -0.01 |
| Cc1sc2ncnc(N3CCC(C(N)=O)CC3)c2c1C | 0.06 |
| CN1C(=O)N(CC(=O)Nc2ccc(-n3cnc4ccccc43)nc2)C(=O)C12CCCCC2 | -0.03 |
| Cc1oc2cc(OC(C)C(=O)NCc3ccco3)ccc2c(=O)c1-c1c(F)cccc1Cl (stereo not shown) | -0.14 |
| CC(C)Nc1nnc(S)s1 | -0.06 |
| COc1cc(NC(=O)c2ccco2)c(C(=O)OCc2nc3ccsc3c(=O)[nH]2)cc1OC | -0.11 |
| CCCOCC(=O)O | -0.03 |
| NC(=O)CCN(Cc1ccccc1)C(=O)COC(=O)C12CC3CC(C1)CC(c1ccccc1)(C3)C2 | -0.03 |
| O=C(NC12CC3CC(CC(C3)C1)C2)c1c[nH]n2c1nc(=O)c1ccccc12 | -0.03 |
| Cc1cc(Br)c(NCc2cc(=O)n3ccccc3n2)c(Br)c1 | -0.16 |
| Cc1noc(C(NC(=O)c2cc(C(N)=O)cs2)C(C)C)n1 (stereo not shown) | -0.01 |
| CC(C(=O)N1CCCC1)N1CCN(Cc2csc3ccccc23)CC1 (stereo not shown) | -0.13 |
| CC(N)CN (stereo not shown) | 0.06 |
| Cc1ccc(NS(=O)(=O)c2cccc(C(=O)NC3CCC(CC4CCC(NC(=O)c5cccc(S(=O)(=O)Nc6ccc(C)cc6C)c5)CC4)CC3)c2)c(C)c1 (stereo not shown) | 0.08 |
| CC1CCN(c2ccc(NC(=O)CSc3nnc(NCc4ccco4)s3)cc2)CC1 | -0.18 |
| Cc1ccc(-n2cnc3c2CCNC3)cc1 | -0.16 |
| CS(=O)(=O)NCC1CCCN(C(=O)c2ccc3[nH]c4c(c3c2)CCCCC4)C1 (stereo not shown) | -0.04 |
| O=C(NCCc1c[nH]c2ccccc12)c1c[nH]cnc1=O | -0.05 |
| Cc1cccc(Cc2cnc(NC(=O)c3cc4c(C)nn(-c5ccccc5)c4s3)s2)c1 | 0.16 |

Quoted at random: three entries already listed, in no set order.

| SMILES | TSA(with NAD+) / Primary screening (TSA) / delta Tm (K) |
| --- | --- |
| CC1CCN(c2ccc(NC(=O)CSc3nnc(NCc4ccco4)s3)cc2)CC1 | -0.18 |
| Cc1noc(C(NC(=O)c2cc(C(N)=O)cs2)C(C)C)n1 (stereo not shown) | -0.01 |
| NC(=O)CCN(Cc1ccccc1)C(=O)COC(=O)C12CC3CC(C1)CC(c1ccccc1)(C3)C2 | -0.03 |

The results go on.

| SMILES | TSA(with NAD+) / Primary screening (TSA) / delta Tm (K) |
| --- | --- |
| Cc1nc(-c2ccc(CCNC(=O)CN3CCCCCCC3=O)cc2)cs1 | -0.28 |
| Nc1nccnc1C(=O)NCC1CC2c3ccccc3C1c1ccccc12 (stereo not shown) | -0.38 |
| CN1C(=O)N(CCC23CC4CC(CC(C4)C2)C3)C(=O)C12CCCCC2 | 0.03 |
| CC(C)Oc1ccc(C(=O)C2=C(O)C(=O)N(CCCN3CCOCC3)C2c2ccncc2)cc1 (stereo not shown) | 0.08 |
| Cn1ncc2c(N3CCN(CCC(=O)Nc4sccc4C(N)=O)CC3)ncnc21 | -0.13 |
| Cc1cc(NCc2cccnc2N2CCC(C(N)=O)CC2)nc(C)n1 | 0.01 |
| CNC(C)CN (stereo not shown) | -0.01 |
| O=C(NCC1CCCN(Cc2cccs2)C1)c1ccc2n[n-]nc2c1 (stereo not shown) | 0.12 |
| COc1ccc(NS(=O)(=O)c2cccc(C(=O)NNC(=O)C34CC5CC(CC(C5)C3)C4)c2)cc1 | -0.01 |
| Cc1nn2cccnc2c1C(=O)NCc1ccc(-c2nnn[nH]2)cc1 | -0.06 |
| CCC(=O)CN | -0.06 |
| COc1ccc(C(=O)C2=C(O)C(=O)N(CCCN3CCOCC3)C2c2ccc(C)cc2)cc1C (stereo not shown) | -0.11 |
| CC(C)CCCN | -0.29 |
| Cc1cc(C2CCN(c3ncnc4sc5c(c34)CCC5)CC2)[nH]n1 | -0.24 |
| C=CCN(C)C(=O)NC(C)c1ccc(NC(=O)c2ccncc2)cc1 (stereo not shown) | -0.15 |
| NC(=O)C1CCN(C(=O)c2ccc3[nH]c4c(c3c2)CCCC4)CC1 | 0.01 |
| CC(=O)Nc1ccc(NC(=O)c2cccc(S(=O)(=O)N(C)c3ccc(C)cc3)c2)cc1 | -0.04 |
| O=C(COc1ccccc1C(=O)Nc1ccc(S(=O)(=O)Nc2nccs2)cc1)Nc1cccc(C(F)(F)F)c1 | 0.82 |
| COc1ccc(N(C)S(=O)(=O)c2cccc(C(=O)Nc3cccc(C#N)c3)c2)cc1 | 0.35 |
| O=C(Nc1cc(S(=O)(=O)N2CCOCC2)ccc1Oc1ccccc1)C1=COCCO1 | -0.03 |
| NC(=O)COC(=O)C1CCCN(C2=NS(=O)(=O)c3ccccc32)C1 (stereo not shown) | -0.09 |
| Cc1cc(-c2csc(NC(=O)c3nn(C)c(=O)c4ccccc34)n2)c(C)n1CCc1ccccc1 | -0.14 |
| COC(=O)c1cn(CC(=O)N2CCc3ccc(O)cc3C2)c2ccccc12 | -0.16 |
